{
  "source": "patent US20120053534A1",
  "about": "“INTRAVAGINAL DEVICES COMPRISING ANTICHOLINERGIC AGENTS, AND METHODS OF MAKING THEREOF” (priority 2010, published 2012)",
  "conditions": "plasma oxybutynin; dogs; oral 10 mg/day",
  "note": "At least one read-out could not be matched to a standard name with certainty.",
  "data": [
    {"smiles": "CCN(CC)CC#CCOC(=O)C(O)(c1ccccc1)C1CCCCC1", "note": "(stereo not shown) [oxybutynin, 4-diethylaminobut-2-ynyl2-cyclohexyl-2-hydroxy-2-phenyl-ethanoate]", "values": [
      {"measurement": "time of Cmax after dosing", "value": 3, "unit": "h"}
    ]}
  ]
}
